The chains behind the UniProt entries cited, without tags or fusion partners.
UniProt Q9GZU1: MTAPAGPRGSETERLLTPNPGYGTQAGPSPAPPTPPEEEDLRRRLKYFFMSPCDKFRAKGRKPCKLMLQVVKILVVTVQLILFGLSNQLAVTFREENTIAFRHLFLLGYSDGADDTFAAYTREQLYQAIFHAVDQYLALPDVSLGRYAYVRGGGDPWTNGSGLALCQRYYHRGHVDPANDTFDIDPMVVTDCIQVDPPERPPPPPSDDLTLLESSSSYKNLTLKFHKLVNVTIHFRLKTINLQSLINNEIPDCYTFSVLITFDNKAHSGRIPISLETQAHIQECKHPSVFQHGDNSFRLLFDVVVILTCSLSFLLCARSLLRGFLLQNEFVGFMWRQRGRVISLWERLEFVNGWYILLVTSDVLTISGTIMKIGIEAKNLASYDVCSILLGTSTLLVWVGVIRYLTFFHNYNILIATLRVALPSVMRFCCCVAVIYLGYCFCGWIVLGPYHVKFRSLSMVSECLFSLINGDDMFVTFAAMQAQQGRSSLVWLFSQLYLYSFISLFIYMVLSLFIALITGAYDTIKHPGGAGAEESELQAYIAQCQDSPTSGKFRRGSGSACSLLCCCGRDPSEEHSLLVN

In article doi:10.1101/2022.12.14.520480:

T1: APEX2-TBC1D15 (UniProt Q8TC07)
T1 sequence: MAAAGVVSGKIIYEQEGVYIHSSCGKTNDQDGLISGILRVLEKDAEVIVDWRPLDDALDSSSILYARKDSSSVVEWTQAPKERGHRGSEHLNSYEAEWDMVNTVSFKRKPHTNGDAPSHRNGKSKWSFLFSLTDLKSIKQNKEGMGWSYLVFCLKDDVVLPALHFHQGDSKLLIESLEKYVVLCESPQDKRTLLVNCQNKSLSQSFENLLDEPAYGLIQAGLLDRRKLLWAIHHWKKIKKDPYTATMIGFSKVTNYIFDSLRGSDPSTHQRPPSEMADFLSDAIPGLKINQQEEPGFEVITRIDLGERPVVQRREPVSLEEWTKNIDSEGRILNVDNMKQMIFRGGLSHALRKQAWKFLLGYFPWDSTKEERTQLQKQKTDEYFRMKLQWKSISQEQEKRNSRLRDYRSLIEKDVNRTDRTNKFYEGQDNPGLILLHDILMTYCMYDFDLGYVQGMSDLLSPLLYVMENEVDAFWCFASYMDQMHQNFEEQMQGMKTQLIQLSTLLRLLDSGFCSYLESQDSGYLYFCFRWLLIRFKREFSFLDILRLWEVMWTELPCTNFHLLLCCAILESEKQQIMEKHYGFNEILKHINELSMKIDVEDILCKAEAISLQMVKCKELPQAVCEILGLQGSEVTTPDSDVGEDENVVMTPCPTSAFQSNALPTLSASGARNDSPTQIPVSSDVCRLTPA


Columns and labels:
[1] = target: T1, APEX2-TBC1D15; assay: proximity labelling
[2] = target: TRPML1-APEX2 (UniProt Q9GZU1); assay: proximity labelling

Binder | binding [1] | binding [2]
PICALM (protein, UniProt Q13492 1-652) MSGQSLTDRITAAQHSVTGSAVSKTVCKATTHEIMGPKKKHLDYLIQCTNEMNVNIPQLADSLFERTTNSSWVVVFKSLITTHHLMVYGNERFIQYLASRNTLFNLSNFLDKSGLQGYDMSTFIRRYSRYLNEKAVSYRQVAFDFTKVKRGADGVMRTMNTEKLLKTVPIIQNQMDALLDFNVNSNELTNGVINAAFMLLFKDAIRLFAAYNEGIINLLEKYFDMKKNQCKEGLDIYKKFLTRMTRISEFLKVAEQVGIDRGDIPDLSQAPSSLLDALEQHLASLEGKKIKDSTAASRATTLSNAVSSLASTGLSLTKVDEREKQAALEEEQARLKALKEQRLKELAKKPHTSLTTAASPVSTSAGGIMTAPAIDIFSTPSSSNSTSKLPNDLLDLQQPTFHPSVHPMSTASQVASTWGDPFSATVDAVDDAIPSLNPFLTKSSGDVHLSISSDVSTFTTRTPTHEMFVGFTPSPVAQPHPSAGLNVDFESVFGNKSTNVIVDSGGFDELGGLLKPTVASQNQNLPVAKLPPSKLVSDDLDSSLANLVGNLGIGNGTTKNDVNWSQPGEKKLTGGSNWQPKVAPTTAWNAATMAPPVMAYPATTPTGMIGYGIPPQMGSVPVMTQPTLIYSQPVMRPPNPFGPVSGAQIQFM | binds | –
TBC1D15 (endogenous) (protein, UniProt Q8TC07 1-691) MAAAGVVSGKIIYEQEGVYIHSSCGKTNDQDGLISGILRVLEKDAEVIVDWRPLDDALDSSSILYARKDSSSVVEWTQAPKERGHRGSEHLNSYEAEWDMVNTVSFKRKPHTNGDAPSHRNGKSKWSFLFSLTDLKSIKQNKEGMGWSYLVFCLKDDVVLPALHFHQGDSKLLIESLEKYVVLCESPQDKRTLLVNCQNKSLSQSFENLLDEPAYGLIQAGLLDRRKLLWAIHHWKKIKKDPYTATMIGFSKVTNYIFDSLRGSDPSTHQRPPSEMADFLSDAIPGLKINQQEEPGFEVITRIDLGERPVVQRREPVSLEEWTKNIDSEGRILNVDNMKQMIFRGGLSHALRKQAWKFLLGYFPWDSTKEERTQLQKQKTDEYFRMKLQWKSISQEQEKRNSRLRDYRSLIEKDVNRTDRTNKFYEGQDNPGLILLHDILMTYCMYDFDLGYVQGMSDLLSPLLYVMENEVDAFWCFASYMDQMHQNFEEQMQGMKTQLIQLSTLLRLLDSGFCSYLESQDSGYLYFCFRWLLIRFKREFSFLDILRLWEVMWTELPCTNFHLLLCCAILESEKQQIMEKHYGFNEILKHINELSMKIDVEDILCKAEAISLQMVKCKELPQAVCEILGLQGSEVTTPDSDVGEDENVVMTPCPTSAFQSNALPTLSASGARNDSPTQIPVSSDVCRLTPA | – | binds

Results are given in words; binding and its absence hold for the method and conditions named. In cells and extracts the contact can be indirect. These calls come from enrichment with a bait or labelling near it, and not all partners need be listed.
